Here are results for two substances from PMC5547131.

Chains of the proteins cited; added tags and fusions are not shown. Lines headed by an entry give the natural chain unless they say otherwise; changes in a name come on top.
UniProt P49767: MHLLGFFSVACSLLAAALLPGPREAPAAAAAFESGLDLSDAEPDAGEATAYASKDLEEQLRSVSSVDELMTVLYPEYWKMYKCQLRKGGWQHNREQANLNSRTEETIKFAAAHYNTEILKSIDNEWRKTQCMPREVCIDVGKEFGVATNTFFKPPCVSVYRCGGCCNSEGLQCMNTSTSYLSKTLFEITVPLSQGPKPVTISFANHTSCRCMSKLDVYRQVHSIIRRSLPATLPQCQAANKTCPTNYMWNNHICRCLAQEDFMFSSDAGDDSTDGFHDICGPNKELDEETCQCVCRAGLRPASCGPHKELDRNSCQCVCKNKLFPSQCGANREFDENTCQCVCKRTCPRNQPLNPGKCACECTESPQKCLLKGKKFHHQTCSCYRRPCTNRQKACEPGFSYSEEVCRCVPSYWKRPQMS

One assay deals with T1, full-length CD146 (UniProt P43121).
T1 sequence: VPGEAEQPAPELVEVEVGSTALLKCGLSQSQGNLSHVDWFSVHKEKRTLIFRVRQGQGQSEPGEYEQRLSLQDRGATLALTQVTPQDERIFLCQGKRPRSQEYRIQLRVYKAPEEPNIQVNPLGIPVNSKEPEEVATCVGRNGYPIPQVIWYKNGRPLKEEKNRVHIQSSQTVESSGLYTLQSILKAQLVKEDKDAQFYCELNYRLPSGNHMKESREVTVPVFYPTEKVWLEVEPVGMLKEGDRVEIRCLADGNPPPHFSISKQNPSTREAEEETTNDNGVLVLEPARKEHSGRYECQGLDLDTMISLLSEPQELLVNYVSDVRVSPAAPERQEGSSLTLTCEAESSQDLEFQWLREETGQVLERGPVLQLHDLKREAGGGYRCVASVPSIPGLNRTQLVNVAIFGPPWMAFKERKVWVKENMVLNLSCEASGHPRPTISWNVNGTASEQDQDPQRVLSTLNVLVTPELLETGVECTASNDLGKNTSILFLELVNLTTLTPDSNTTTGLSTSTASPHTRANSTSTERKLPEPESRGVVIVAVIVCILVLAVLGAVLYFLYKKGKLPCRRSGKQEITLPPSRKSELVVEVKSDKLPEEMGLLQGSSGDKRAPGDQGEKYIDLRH
Briefly: co-IP; HEK293 cells transfected with CD146 or empty vector, incubated with VEGF-C-His conditional medium or not; lysates precipitated, WB; precipitating antibody not told for this panel.

The target in the next assay is VEGF-C (UniProt P49767). Briefly: co-IP; HEK293 cells co-transfected with VEGF-C and Flag-tagged CD146 or its truncation mutants for 48 h; RIPA lysates precipitated with anti-VEGF-C mAb, protein G sepharose, WB.

No constants are given. Whether binding was seen depends on the method and setting. In cells and extracts the contact can be indirect. Binding can be weak; no strength is given.

With “VEGF-C-His (from UniProt P49767) (ligand)”, in the assay with full-length CD146, the binding entry was “binds”. With “full-length CD146, Flag-tagged (from UniProt P43121 24-646) (receptor)”, the binding entry with VEGF-C is “binds”.
